Results as given in the supplement of paper PMC12823440, “Inhibitors supercharge kinase turnover through native proteolytic circuits” (Nature, 2025).
Counter-ions that a name gives are not always drawn. This is one part of the list. Hit calls seldom repeat between salt and free forms of one compound.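 Kinases were expressed as nanoluciferase fusions in K562 cells and luminescence was read every 4 h between 2 and 18 h as percent of control, DMSO set to 100% and a positive control to 0%. A time point counts as decreased when the signal drops significantly (2 sigma). The hit call is the authors' own, does not follow from the count of time points alone, and its rule is not shown.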

Chains of the proteins cited; added tags and fusions are not shown. Lines headed by an entry give the natural chain unless they say otherwise; changes in a name come on top.
UniProt P07947, whole entry, looked up: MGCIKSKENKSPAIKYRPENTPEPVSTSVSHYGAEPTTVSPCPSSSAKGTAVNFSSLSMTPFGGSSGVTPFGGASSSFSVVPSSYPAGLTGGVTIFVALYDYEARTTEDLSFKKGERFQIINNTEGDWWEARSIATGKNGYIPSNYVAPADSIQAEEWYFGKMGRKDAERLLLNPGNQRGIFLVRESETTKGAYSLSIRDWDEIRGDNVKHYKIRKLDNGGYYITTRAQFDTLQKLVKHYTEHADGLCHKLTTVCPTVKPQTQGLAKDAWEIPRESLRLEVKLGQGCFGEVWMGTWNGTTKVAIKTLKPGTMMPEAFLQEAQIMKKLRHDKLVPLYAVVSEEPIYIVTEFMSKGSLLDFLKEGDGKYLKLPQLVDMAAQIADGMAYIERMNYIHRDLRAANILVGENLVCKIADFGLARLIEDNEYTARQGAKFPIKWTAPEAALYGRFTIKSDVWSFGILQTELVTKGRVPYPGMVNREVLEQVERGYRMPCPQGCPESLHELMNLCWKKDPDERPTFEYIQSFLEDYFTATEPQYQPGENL
UniProt P43403: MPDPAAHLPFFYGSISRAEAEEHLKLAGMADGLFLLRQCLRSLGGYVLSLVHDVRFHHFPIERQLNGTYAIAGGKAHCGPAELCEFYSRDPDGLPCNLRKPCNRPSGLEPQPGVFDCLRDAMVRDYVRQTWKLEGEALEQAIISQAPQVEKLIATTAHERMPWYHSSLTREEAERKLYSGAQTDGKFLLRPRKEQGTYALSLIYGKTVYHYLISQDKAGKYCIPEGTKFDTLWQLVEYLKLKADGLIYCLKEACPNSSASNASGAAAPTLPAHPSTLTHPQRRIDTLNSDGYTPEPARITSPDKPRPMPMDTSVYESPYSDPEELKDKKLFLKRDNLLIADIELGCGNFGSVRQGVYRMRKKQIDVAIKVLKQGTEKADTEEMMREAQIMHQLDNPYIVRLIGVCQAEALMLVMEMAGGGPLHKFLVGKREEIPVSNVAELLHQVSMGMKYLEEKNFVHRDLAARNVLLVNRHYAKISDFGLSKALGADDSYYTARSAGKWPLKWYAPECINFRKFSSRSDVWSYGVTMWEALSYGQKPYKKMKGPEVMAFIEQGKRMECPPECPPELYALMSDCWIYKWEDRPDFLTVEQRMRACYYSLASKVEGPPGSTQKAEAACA
UniProt P11802: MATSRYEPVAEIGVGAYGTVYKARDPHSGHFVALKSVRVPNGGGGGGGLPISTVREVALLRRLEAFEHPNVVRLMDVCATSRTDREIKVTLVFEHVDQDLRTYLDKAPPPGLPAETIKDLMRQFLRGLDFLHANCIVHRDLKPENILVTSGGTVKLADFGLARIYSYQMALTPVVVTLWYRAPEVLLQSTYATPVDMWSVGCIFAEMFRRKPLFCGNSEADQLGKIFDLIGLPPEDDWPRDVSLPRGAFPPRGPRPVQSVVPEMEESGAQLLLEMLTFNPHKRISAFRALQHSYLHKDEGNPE
UniProt P50613: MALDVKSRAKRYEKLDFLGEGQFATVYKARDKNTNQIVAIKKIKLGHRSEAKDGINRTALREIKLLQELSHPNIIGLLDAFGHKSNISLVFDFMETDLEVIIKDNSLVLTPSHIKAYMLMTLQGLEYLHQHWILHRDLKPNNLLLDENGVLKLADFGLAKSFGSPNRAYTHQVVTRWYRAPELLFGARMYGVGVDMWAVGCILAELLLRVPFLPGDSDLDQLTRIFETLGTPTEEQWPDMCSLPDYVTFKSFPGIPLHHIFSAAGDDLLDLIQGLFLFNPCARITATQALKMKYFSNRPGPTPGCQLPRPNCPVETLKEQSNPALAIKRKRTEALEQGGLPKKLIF
UniProt P50750, whole entry: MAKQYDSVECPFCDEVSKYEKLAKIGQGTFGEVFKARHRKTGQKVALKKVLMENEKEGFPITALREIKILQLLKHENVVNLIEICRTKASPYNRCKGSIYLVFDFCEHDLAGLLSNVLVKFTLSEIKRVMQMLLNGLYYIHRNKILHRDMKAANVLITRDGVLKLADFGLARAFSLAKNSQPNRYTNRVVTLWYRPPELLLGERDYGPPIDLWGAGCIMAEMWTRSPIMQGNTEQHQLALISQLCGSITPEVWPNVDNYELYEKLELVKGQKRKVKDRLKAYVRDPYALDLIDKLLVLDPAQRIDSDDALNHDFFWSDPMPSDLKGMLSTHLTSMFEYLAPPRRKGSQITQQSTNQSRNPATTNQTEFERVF

Legend:
Settings in all cases: K562; 2-18 h
YES1 = YES1 (UniProt P07947); experiment: number of time points (of 5) at which kinase-Nluc abundance scored as decreased, DMSO-normalised (count); higher = more persistent destabilization
ZAK = ZAK (UniProt Q9NYL2); experiment: as above
ZAP70 = ZAP70 (UniProt P43403); experiment: as above
CDK4 = CDK4 (UniProt P11802); experiment: number of time points (of 4; 2 h point missing) at which kinase-Nluc abundance scored as decreased, DMSO-normalised (count); higher = more persistent destabilization
CDK7 = CDK7 (UniProt P50613); experiment: as above
CDK9 = CDK9 (UniProt P50750); experiment: as above

Measured: number of time points

Cc1ccc2nc(NC(=O)CSc3nc4c(c(=O)n3-c3ccccc3)SCC4)sc2c1 (2 µM)
0: YES1 | ZAK | ZAP70 | CDK4 | CDK7 | CDK9

COc1ccc(C(=O)Nc2sc3c(c2C(N)=O)CCCC3)cc1OC (10 µM)
0: YES1 | ZAK | ZAP70 | CDK4 | CDK7 | CDK9

O=C(/C=C/c1ccc(O[C@@H]2O[C@H](CO)[C@@H](O)[C@H](O)[C@H]2O[C@@H]2OC[C@](O)(CO)[C@H]2O)cc1)c1ccc(O)cc1O [Isoliquiritin apioside] (10 µM)
0: YES1 | ZAK | ZAP70 | CDK4 | CDK7 | CDK9

COC1(C(=O)N2Cc3nc(Cl)nc(N[C@H](C)c4cc(N)cc(C(F)(F)F)c4)c3C2)CCOCC1 (10 µM)
0: YES1 | ZAK | ZAP70 | CDK4 | CDK7 | CDK9

C/C(=C1/C(=O)Nc2ccc(NC(N)=O)cc21)c1ccc[nH]1 (10 µM)
0: YES1 | ZAK | ZAP70 | CDK4 | CDK7 | CDK9

CC(=NNC(=O)c1ccc(C)c(Br)c1)c1ccc(O)cc1O [mTOR inhibitor-1] (2.5 µM)
0: YES1 | ZAK | ZAP70 | CDK4 | CDK7 | CDK9

COc1ccc2c(c1O)OC(C)(C)c1c-2ccc2c1C(=O)N(c1ccc(C(=O)c3ccccc3)cc1)C2=O [Ampkinone] (10 µM)
0: YES1 | ZAK | ZAP70 | CDK4 | CDK7 | CDK9

CCn1c(-c2nonc2N)nc2cnc(Oc3cccc(NC(=O)c4ccc(OCCN5CCOCC5)cc4)c3)cc21 (10 µM)
0: YES1 | ZAK | ZAP70 | CDK4 | CDK9
2: CDK7

Cn1c(=O)c(F)c(Nc2ccc(I)cc2F)c2c(=O)n(C[C@@H](O)CO)cnc21 (10 µM)
0: YES1 | ZAK | ZAP70 | CDK4 | CDK9
1: CDK7

CCOc1cc(C(=O)N2CCC(N3CCN(C)CC3)CC2)ccc1Nc1ncc2c(n1)N(C1CCCC1)c1ccccc1C(=O)N2C (10 µM)
0: YES1 | ZAK | ZAP70 | CDK4 | CDK7 | CDK9

C[C@]1(O)CCC[C@@H]1n1c(=O)c(C(F)F)cc2cnc(NC3CCN(S(C)(=O)=O)CC3)nc21 (10 µM)
0: YES1 | ZAK | ZAP70 | CDK4 | CDK7 | CDK9

Cc1cc(NC(=O)c2cccc(NC(=O)/C=C/CN(C)C)c2)ccc1Nc1nccc(-c2cccnc2)n1 (10 µM)
4: YES1
0: ZAK | ZAP70 | CDK4 | CDK7 | CDK9

CN1CCN(c2ccc(Nc3ncc4nc(Nc5ccccc5)n([C@@H]5CCN(S(=O)(=O)C6CC6)C5)c4n3)cc2)CC1 (2.5 µM)
0: YES1 | ZAK | ZAP70 | CDK4 | CDK7 | CDK9

CCn1c(=O)c(-c2ccc(-c3cncs3)cc2Cl)cc2cnc(Nc3ccc(N4CCN(C)CC4)cc3)nc21 (2.5 µM)
0: YES1 | ZAK | ZAP70 | CDK4 | CDK7 | CDK9

CNC(=O)Nc1ccc(-c2cc(-c3ccnc(Nc4ccc(C)c(S(=O)(=O)N(C)C)c4)n3)ccn2)cc1 [hSMG-1 inhibitor 11e] (2.5 µM)
1: YES1
0: ZAK | ZAP70 | CDK4 | CDK7 | CDK9

COc1ccc2[nH]cc(/C=C3\C(=O)Nc4ccc(NC(=O)CCN5CCCCC5)cc43)c2c1 (2.5 µM)
0: YES1 | ZAK | ZAP70 | CDK4 | CDK7 | CDK9

Cc1c(NC(=O)OC[C@@H]2COCCN2)cn2ncnc(Nc3ccc4c(cnn4Cc4cccc(F)c4)c3)c12 (10 µM)
0: YES1 | ZAK | ZAP70 | CDK4 | CDK7 | CDK9

N[C@H](Cc1c[nH]c2ccccc12)C(=O)N/N=C/c1ccc2nccnc2c1 [Rhosin (hydrochloride)] (10 µM)
0: YES1 | ZAK | ZAP70 | CDK4 | CDK7 | CDK9

COc1cc2c[n+](C)c3c4cc5c(cc4ccc3c2cc1OC)OCO5 [Nitidine (chloride)] (2 µM)
0: YES1 | ZAK | ZAP70 | CDK4 | CDK7 | CDK9

CN1C(=O)C(Cc2c[nH]c3ccccc23)NC1=S (stereo not given) [Necrostatin-1] (10 µM)
0: YES1 | ZAK | ZAP70 | CDK4 | CDK7 | CDK9

C[C@@H](c1ccc2nccn2c1)n1nnc2ncc(-c3cnn(C)c3)nc21 [Savolitinib] (10 µM)
0: YES1 | ZAK | ZAP70 | CDK4 | CDK7 | CDK9

O=C(NC(NC(=S)Nc1ccc(F)c([N+](=O)[O-])c1)C(Cl)(Cl)Cl)C(c1ccccc1)c1ccccc1 (stereo not given) (10 µM)
0: YES1 | ZAK | ZAP70 | CDK4 | CDK7 | CDK9

c1cn2cc(-c3ccc4cn[nH]c4c3)nc(Nc3ccc(N4CCOCC4)cc3)c2n1 [Entospletinib] (10 µM)
0: YES1 | ZAK | ZAP70 | CDK4 | CDK7 | CDK9

COc1cccc(-n2c(=O)[nH]c3cc(Cl)n(-c4ccc(-c5cccc(OC)c5O)cc4)c3c2=O)c1 (2.5 µM)
0: YES1 | ZAK | ZAP70 | CDK4 | CDK7 | CDK9

CNCc1ccccc1-c1csc([C@@H](C)Nc2nc(C)nc3cc(OC)c(OC)cc23)c1 (2.5 µM)
0: YES1 | ZAK | ZAP70 | CDK4 | CDK9
3: CDK7

CC(C)(C)c1ccc(S(=O)(=O)Nc2ccc(-n3ccnc3)cc2)cc1 (10 µM)
0: YES1 | ZAK | ZAP70 | CDK4 | CDK7 | CDK9

O=C(O)c1cc(O)ccc1O [2,5-Dihydroxybenzoic acid] (10 µM)
0: YES1 | ZAK | ZAP70 | CDK4 | CDK7 | CDK9

COc1cc(N2CCN(C)CC2)ccc1Nc1ncc2c(n1)N(C1CCC1)C(=O)N(c1c(C)cccc1C)C2 (2.5 µM)
0: YES1 | ZAK | ZAP70 | CDK4 | CDK7 | CDK9

O=[N+]([O-])c1cc(C(F)(F)F)cc([N+](=O)[O-])c1NNC(=S)Nc1ccc(F)cc1 (10 µM)
0: YES1 | ZAK | ZAP70 | CDK4 | CDK7 | CDK9

Cc1ccc(NC(=S)NNc2c([N+](=O)[O-])cc(C(F)(F)F)cc2[N+](=O)[O-])cc1Cl (10 µM)
1: CDK9
0: YES1 | ZAK | ZAP70 | CDK4 | CDK7

Cc1c(CN2CCN(S(C)(=O)=O)CC2)sc2c(N3CCOCC3)nc(-c3cnc(N)nc3)nc12 (2.5 µM)
0: YES1 | ZAK | ZAP70 | CDK4 | CDK7 | CDK9

O=C1NC(=O)C(=Cc2ccc(-c3ccc(F)cc3)o2)S1 (stereo in doubt) (10 µM)
0: YES1 | ZAK | ZAP70 | CDK4 | CDK7 | CDK9

Cc1ccc(S(=O)(=O)/C=C/C#N)cc1 (10 µM)
0: YES1 | ZAK | ZAP70 | CDK4 | CDK7 | CDK9

Cc1cc([C@H](C)Nc2ccccc2)c2oc(N3CCOCC3)cc(=O)c2c1 (10 µM)
0: YES1 | ZAK | ZAP70 | CDK4 | CDK7 | CDK9

Cc1csc(-c2nnc(Nc3ccc(Oc4ncccc4-c4ccnc(N)n4)cc3)c3ccccc23)c1 (2.5 µM)
0: YES1 | ZAK | ZAP70 | CDK4 | CDK7 | CDK9

CC(C)(C)NC(=O)c1cncn1C1CCN(c2ccc(-c3nnc(C(F)(F)F)o3)cn2)CC1 (10 µM)
0: YES1 | ZAK | ZAP70 | CDK4 | CDK7 | CDK9

O=C(NCCCNc1nc(Nc2cccc(NC(=O)N3CCCC3)c2)ncc1I)c1cccs1 (2.5 µM)
0: YES1 | ZAK | ZAP70 | CDK4 | CDK7 | CDK9

CCN1CCN(Cc2ccc(Nc3ncc(F)c(-c4cc(F)c5nc(CO)n(C(C)C)c5c4)n3)nc2)CC1 [Abemaciclib metabolite M20] (2 µM)
1: CDK7
0: YES1 | ZAK | ZAP70 | CDK4 | CDK9

Three successive records from above, quoted:
COc1cc2c[n+](C)c3c4cc5c(cc4ccc3c2cc1OC)OCO5 [Nitidine (chloride)] (2 µM)
0: YES1 | ZAK | ZAP70 | CDK4 | CDK7 | CDK9

CN1C(=O)C(Cc2c[nH]c3ccccc23)NC1=S (stereo not given) [Necrostatin-1] (10 µM)
0: YES1 | ZAK | ZAP70 | CDK4 | CDK7 | CDK9

C[C@@H](c1ccc2nccn2c1)n1nnc2ncc(-c3cnn(C)c3)nc21 [Savolitinib] (10 µM)
0: YES1 | ZAK | ZAP70 | CDK4 | CDK7 | CDK9

(next part)

COc1cc(S(C)(=O)=O)ccc1Nc1nc2ccc(-c3ccc(NC(=O)[C@H](C)c4ccc(F)cc4)cc3)cn2n1 [Empesertib] (10 µM)
0: YES1 | ZAK | ZAP70 | CDK4 | CDK7 | CDK9

C=C1C(=O)O[C@@H]2C[C@@]3(C)CCC[C@H](C)C3=C[C@H]12 [Alantolactone] (10 µM)
0: YES1 | ZAK | ZAP70 | CDK4 | CDK7 | CDK9

COc1cc(C(N)=O)nc(-c2cccc(C#C[C@]3(O)CCN(C)C3=O)c2)c1 (10 µM)
0: YES1 | ZAK | ZAP70 | CDK4 | CDK7 | CDK9

CN(CCNc1ccc2ncc(-c3ccc(C(N)=O)cc3)n2n1)C(=O)OC(C)(C)C (10 µM)
0: YES1 | ZAK | ZAP70 | CDK4 | CDK7 | CDK9

CC(C)NC(=O)N1CC[C@H](NC2=Nc3cc(F)ccc3N(CC(F)F)c3ccc(Cl)cc32)C1 (10 µM)
0: YES1 | ZAK | ZAP70 | CDK4 | CDK7 | CDK9

C[C@@]1(O)CCC[C@H]1n1c(=O)c(C(F)F)cc2cnc(NC3CCN(S(C)(=O)=O)CC3)nc21 (2.5 µM)
0: YES1 | ZAK | ZAP70 | CDK4 | CDK9
1: CDK7

COc1cc(F)c(F)c(Nc2ccc(I)cc2F)c1NS(=O)(=O)C1(C[C@H](O)CO)CC1 [Refametinib] (10 µM)
1: CDK7
0: YES1 | ZAK | ZAP70 | CDK4 | CDK9
